Assay results: PubChem BioAssay AID2061317 (National Center for Advancing Translational Sciences (NCATS), 2025)
This list was built around the results that the source calls inconclusive (neither active nor inactive); the mix of calls is not that of the screen. Potencies beside an inconclusive call are fits to weak or partial responses and may not hold up. The source made the active and inactive calls. Calls come from the whole dose curve; as a rule, active = well fitted inhibition curve with a large enough effect; inconclusive = small, poorly fitted or top-dose-only effect; inactive = flat fitted curve, though single readings scatter. Non-standard residues stand in square brackets, D forms with d. Residues, ends and D or L forms follow the SMILES beside them. *: point of attachment. Dolaproine = CO[C@@H]([C@@H]1CCCN1)[C@@H](C)C(=O)O; Dil = CC[C@H](C)[C@H](NC)[C@@H](CC(=O)O)OC; NMe2Val = CC(C)[C@@H](C(=O)*)N(C)C; X1 = C[C@@H](N*)[C@@H](O)c1ccccc1; NMeV = CN[C@H](C(=O)O)C(C)C

assay: Identification of antibody-drug conjugate (ADC) payloads which are substrates of ATP-binding cassette drug efflux transporters: ABCB1-HEK293-MDR-19 cell line with tariquidar; conditions: HEK293 ABCB1 (MDR-19) + tariquidar, CellTiter-Glo viability, 48 h
Source text: Antibody-drug conjugates (ADCs) feature an antibody recognizing a specific protein joined to a potent toxic payload. Numerous antibody-drug conjugates have received FDA approval; however, clinical resistance arises. Resistance mechanisms include decreased expression or mutation of the antibody target, impaired payload release, or increased expression of ATP-binding cassette (ABC) efflux transporters associated with multidrug resistance. We therefore sought to characterize the interaction of ABC multidrug transporters with ADC payloads. We performed a high-throughput screen with 27 common ADC payloads using cells lines expressing ABC transporters P-glycoprotein (P-gp, encoded by ABCB1) or ABCG2 (encoded by ABCG2). Confirmatory assays were also performed using cells transfected to express P-gp, ABCG2, or MRP1 (encoded by ABCC1). Several commonly used ADC payloads were substrates of P-gp, including calicheamicin gamma1, monomethyl auristatin E, DM1, and DM4. All the pyrrolobenzodiazepines tested - SJG136, SGD-1882, SG2057, and SG3199 - were substrates of P-gp, ABCG2, and MRP1. […] These findings highlight the risk of transporter-mediated resistance with certain ADC payloads and underscore the importance of selecting payloads that evade ABC transporter recognition in future ADC development.
HEK-293 cells were transfected with empty vector (pcDNA) or vector containing the human ABCB1 (MDR-19), ABCG2 (R-5), or ABCC1 gene (MRP1) and were maintained in EMEM with 2 mg/mL G418 added to maintain transporter expression. The HeLa derivative KB-3-1 and the P-gp overexpressing KB-8-5-11 subline were maintained in DMEM; KB-8-5-11 additionally received 100 ng/mL colchicine. H460 parental cells were obtained from the Division of Cancer Treatment and Diagnosis Tumor Repository, National Cancer Institute at Frederick, MD and were cultured in RPMI. The ABCG2 expressing subline H460 MX20 was generated by selecting H460 cells in 20 nM mitoxantrone. Media in all cases was supplemented with 10% FBS and 1% penicillin-streptomycin. We explored 27 common ADC payloads, in two orthogonal, paired cell line sets-a drug selected and transfected set for each transporter--to identify substrates of the ABC transporters P-gp and ABCG2. Compounds were sourced from Levena Biopharma (San Diego, CA), Selleck Chem (Houston, TX), ChemieTek (Indianapolis, IN), or Microsource Discovery Systems (Gaylordsville, CT). Screening was performed as previously described. Briefly, cells were plated at a density of 500 cells/well in 1536 well plates with compounds added using a 1536-head pin tool (Kalypsys, San Diego CA). Cells were incubated with cytotoxic drugs and processed with CellTiter Glo reagent (Promega, Madison, WI) to determine viability after 48 hours. P-gp substrates were identified by comparing compound activity between paired sets of low-expressing (sensitive) and over-expressing (resistant) cell lines.

| SMILES | Potency |
| --- | --- |
| COc1cccc2c1C(=O)c1c(O)c3c(c(O)c1C2=O)C[C@@](O)(C(=O)CO)CC3OC1CC(N2CCOC(OC)C2)C(O)C(C)O1 (stereo partly specified) | active: 1.3 nM |
| CC[C@H](C)[C@@H]([C@@H](CC(=O)N1CCC[C@H]1[C@H](OC)[C@@H](C)C(=O)N[C@H](C)[C@@H](O)c1ccccc1)OC)N(C)C(=O)[C@@H](NC(=O)[C@@H](NC)C(C)C)C(C)C (H-[NMeV]V[Dil][Dolaproine]-X1) | inconclusive: 1.7 nM [falling, full curve] |
| CC[C@H](C)[C@H](NC(=O)[C@H]1CCCCN1C)C(=O)N(C)[C@H](C[C@@H](OC(C)=O)c1nc(C(=O)O)cs1)C(C)C | inconclusive: 748 nM [falling, full curve] |
| CC[C@H](C)[C@@H]1NC(=O)CNC(=O)[C@H]2Cc3c([nH]c4cc(O)ccc34)S(=O)C[C@H](NC(=O)CNC1=O)C(=O)N[C@@H](CC(N)=O)C(=O)N1C[C@H](O)C[C@H]1C(=O)N[C@@H]([C@@H](C)[C@@H](O)CO)C(=O)N2 (stereo partly specified) | inconclusive: 3340 nM [falling, full curve] |
| COc1cc2cc(c1Cl)N(C)C(=O)C[C@H](OC(=O)[C@H](C)N(C)C(=O)CCS)[C@]1(C)OC1[C@H](C)C1C[C@@](O)(NC(=O)O1)[C@H](OC)/C=C/C=C(\C)C2 (stereo partly specified) | inconclusive: 4.7 nM [falling, full curve] |
| CC[C@H](C)[C@@H]([C@@H](CC(=O)N1CCC[C@H]1[C@H](OC)[C@@H](C)C(=O)N[C@@H](Cc1ccccc1)C(=O)O)OC)N(C)C(=O)[C@@H](NC(=O)[C@H](C(C)C)N(C)C)C(C)C (NMe2Val-V[Dil][Dolaproine]F-OH) | inconclusive: 133 nM [falling, full curve] |
